From article PMC7181646
These are yes or no findings as the source states them, for the method shown. Binding seen in cells or lysates may run through a third protein. Some results given as binding are weak or reduced against the parent protein; the word gives no strength.

Protein sequences, listed by entry. Tags and fused reporters are not part of them. Lines headed by an entry give the natural chain unless they say otherwise; changes in a name come on top.
UniProt P40763: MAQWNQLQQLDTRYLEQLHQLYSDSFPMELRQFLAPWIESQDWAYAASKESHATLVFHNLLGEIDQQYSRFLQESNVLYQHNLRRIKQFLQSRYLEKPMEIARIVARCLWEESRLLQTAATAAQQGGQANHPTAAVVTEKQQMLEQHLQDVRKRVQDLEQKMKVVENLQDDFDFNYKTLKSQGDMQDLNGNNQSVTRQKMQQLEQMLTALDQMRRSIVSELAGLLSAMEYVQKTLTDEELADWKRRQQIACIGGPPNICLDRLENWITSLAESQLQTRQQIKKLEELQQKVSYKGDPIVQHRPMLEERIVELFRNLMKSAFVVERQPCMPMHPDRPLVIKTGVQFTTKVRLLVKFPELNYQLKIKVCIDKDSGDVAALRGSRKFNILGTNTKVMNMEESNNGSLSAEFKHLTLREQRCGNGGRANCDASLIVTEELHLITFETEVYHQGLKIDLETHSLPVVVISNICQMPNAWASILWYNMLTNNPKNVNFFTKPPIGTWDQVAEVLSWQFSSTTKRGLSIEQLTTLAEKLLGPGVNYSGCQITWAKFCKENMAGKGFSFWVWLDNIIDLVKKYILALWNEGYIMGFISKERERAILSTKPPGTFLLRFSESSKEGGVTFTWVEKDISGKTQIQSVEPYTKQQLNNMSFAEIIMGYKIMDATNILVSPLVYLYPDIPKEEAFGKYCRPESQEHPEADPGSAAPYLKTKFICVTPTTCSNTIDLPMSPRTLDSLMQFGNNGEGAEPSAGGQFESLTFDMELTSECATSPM

T1: B Cell Lymphoma-9 (BCL9) (human (endogenous in DCIS.COM and SUM225)) (UniProt O00512)
T1 sequence: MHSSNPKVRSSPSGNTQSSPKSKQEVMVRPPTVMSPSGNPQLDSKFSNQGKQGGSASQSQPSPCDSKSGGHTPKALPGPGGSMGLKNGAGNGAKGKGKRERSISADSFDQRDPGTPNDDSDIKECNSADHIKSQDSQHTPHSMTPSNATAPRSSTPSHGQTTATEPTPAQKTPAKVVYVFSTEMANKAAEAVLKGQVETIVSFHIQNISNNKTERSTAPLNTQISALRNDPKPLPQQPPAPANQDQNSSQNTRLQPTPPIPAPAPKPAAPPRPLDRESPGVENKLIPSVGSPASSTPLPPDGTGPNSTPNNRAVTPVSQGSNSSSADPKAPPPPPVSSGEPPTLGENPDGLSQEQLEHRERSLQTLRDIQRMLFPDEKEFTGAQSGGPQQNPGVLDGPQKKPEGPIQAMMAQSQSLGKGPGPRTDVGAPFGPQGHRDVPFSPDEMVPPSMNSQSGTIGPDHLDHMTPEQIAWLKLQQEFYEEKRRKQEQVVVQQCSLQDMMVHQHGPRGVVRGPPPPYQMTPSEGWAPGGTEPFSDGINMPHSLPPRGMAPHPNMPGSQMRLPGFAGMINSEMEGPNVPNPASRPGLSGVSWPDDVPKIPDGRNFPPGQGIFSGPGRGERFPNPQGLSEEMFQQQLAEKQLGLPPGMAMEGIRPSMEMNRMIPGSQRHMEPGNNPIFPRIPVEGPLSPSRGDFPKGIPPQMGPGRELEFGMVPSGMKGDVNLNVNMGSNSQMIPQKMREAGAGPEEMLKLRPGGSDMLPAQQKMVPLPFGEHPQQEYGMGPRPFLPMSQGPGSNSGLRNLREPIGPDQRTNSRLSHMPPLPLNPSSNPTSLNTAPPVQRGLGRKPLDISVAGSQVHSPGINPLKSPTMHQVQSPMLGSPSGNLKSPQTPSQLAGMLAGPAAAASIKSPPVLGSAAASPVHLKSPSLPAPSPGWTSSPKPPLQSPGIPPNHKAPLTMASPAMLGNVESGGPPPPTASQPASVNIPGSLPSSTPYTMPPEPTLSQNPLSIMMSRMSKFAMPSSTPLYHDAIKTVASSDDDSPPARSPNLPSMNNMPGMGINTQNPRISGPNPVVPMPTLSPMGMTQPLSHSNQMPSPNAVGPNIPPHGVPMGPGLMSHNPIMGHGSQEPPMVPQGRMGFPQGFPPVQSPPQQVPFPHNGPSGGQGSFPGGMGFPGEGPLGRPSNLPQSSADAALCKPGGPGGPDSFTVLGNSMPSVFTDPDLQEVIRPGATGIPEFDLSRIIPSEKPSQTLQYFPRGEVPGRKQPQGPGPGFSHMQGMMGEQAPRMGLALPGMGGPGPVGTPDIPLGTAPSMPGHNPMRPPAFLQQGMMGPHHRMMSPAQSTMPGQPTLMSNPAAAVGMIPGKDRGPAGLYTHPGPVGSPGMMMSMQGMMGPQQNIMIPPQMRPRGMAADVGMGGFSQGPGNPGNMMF

T2: BCL9 overexpression (PCDH-BCL9) (UniProt O00512)
T2 sequence: T1 sequence

B1: B Cell Lymphoma-9 (BCL9) (protein, UniProt O00512 1-1426)
chain: T1 sequence

Experiments:
[1] = target: T1, B Cell Lymphoma-9 (BCL9) (human (endogenous in DCIS.COM and SUM225)); test: co-IP; whole-cell extracts of DCIS.COM and SUM225; immunoprecipitation with anti-BCL9 or (reverse) anti-STAT3 antibody, control IgG; Western blot
[2] = target: T2, BCL9 overexpression (PCDH-BCL9); test: proximity ligation; Duolink PLA in 293T cells transfected with BCL9 overexpression and a STAT3 construct; signals quantified in three biological replicates
[3] = target: T1, B Cell Lymphoma-9 (BCL9) (human (endogenous in DCIS.COM and SUM225)); test: proximity ligation; Duolink PLA on fixed, Triton X-100 permeabilised DCIS.COM cells; mouse anti-P(S727) STAT3 and rabbit anti-BCL9 primary antibodies; endogenous proteins
[4] = target: STAT3 (human (endogenous in DCIS.COM and SUM225)) (UniProt P40763); test: co-IP; whole-cell extracts of DCIS.COM and SUM225; immunoprecipitation with anti-BCL9 or (reverse) anti-STAT3 antibody, control IgG; Western blot

Molecule	binding [2]	further results
STAT3 (from UniProt P40763 1-770)		binding [1]: binds
mutant S727A-STAT3 (from UniProt P40763 1-770)	binds	
mutant Y705F-STAT3 (from UniProt P40763 1-770)	binds	
non-mutated wild-type (WT)-STAT3 (from UniProt P40763 1-770)	binds	
phosphoserine 727 STAT3 (PS-727-STAT3) (from UniProt P40763 1-770)		binding [3]: binds
B1		binding [4]: binds
